PubChem BioAssay AID652259 | Drosophila RNAi Screening Center, 2013
Aim: 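Knock-downs that push a Wingless-driven reporter up or down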 (primary screen). System: Drosophila clone 8 imaginal disc epithelial cells. Reagent: long dsRNA against Drosophila genes. Conditions: pathway stimulated by co-transfected Wingless expression plasmid. Read-out: 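Dual luciferase reads per well after Wingless plasmid stimulation: reporter firefly light and Renilla control light; activity is firefly divided by Renilla, a ratio not deposited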. Direction: firefly reporter light: higher = more Wg reporter light, before normalisation; Renilla control light: higher = more transfected or surviving cells. Active means: 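a knock-down is a candidate when at least two out of four statistical tests show it departing from its plate mean; one test alone signals a weak candidate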. Calls: active = candidate regulator (raises or lowers reporter); inactive = not a candidate.
The screen tested about 22,000 reagents; shown is a random part of those with a known target gene and a result. Of all reagents, 233 (1.1%) got an active call. 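Light values are raw, unnormalised plate reads; the ratio scores behind the reporter calls were not deposited.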 Names joined by + are all predicted targets of the reagent. Not given: the amount of reagent, the time to read-out, the dose of the treatment.

gene,DRSC id,"reporter change call, replicate 1","firefly reporter light, replicate 1","firefly reporter light, replicate 2","Renilla control light, replicate 1","Renilla control light, replicate 2",Outcome
CR18275 + CR18166 + CG32817,DRSC17249,,4337,,1920,,inactive
Fbxl4,DRSC19805,,2214,5306,976,2788,inactive
Hrb27C,DRSC03347,,15683,,3512,,inactive
hang,DRSC19901,Wg reporter activity raised,3861,9899,422,1094,active
hang,DRSC19902,,17387,,3532,,inactive
resilin,DRSC05627,,15162,,11500,,inactive
resilin,DRSC06595,,9244,,2816,,inactive
PIG-Wa,DRSC00728,,3609,4733,1104,2204,inactive
CG11159,DRSC06050,,8103,,2454,,inactive
Roc1a,DRSC18483,,25452,,15952,,inactive
CG17698,DRSC11907,,11746,,5692,,inactive
CG31897,DRSC01020,,14714,,8199,,inactive
CG32719,DRSC17525,,4038,,1845,,inactive
CG30284,DRSC22150,,3.67e5,4.52e5,1.97e5,2.32e5,inactive
Sr-CII,DRSC07557,,5040,,2209,,inactive
unc-13,DRSC17192,,2528,,1349,,inactive
unc-13,DRSC17193,,3163,,1297,,inactive
unc-13,DRSC17223,,1961,7250,935,2360,inactive
ODA-Dnal1,DRSC07270,,3546,12357,758,3195,inactive
GCS2beta,DRSC02960,,3404,,390,,inactive
CG42685,DRSC01971,,5515,13693,2386,5536,inactive
Psa,DRSC08152,,13829,,4906,,inactive
CG10232,DRSC14218,,11830,,9763,,inactive
alpha-Est2,DRSC12614,,15152,,3331,,inactive
CG14785,DRSC18604,,2842,6861,682,1984,inactive
CG7271,DRSC22561,,4.74e5,5.95e5,1.84e5,1.76e5,inactive
Gk1,DRSC08533,,10840,,3588,,inactive
Gk1,DRSC08534,,3751,,2116,,inactive
CG11786,DRSC14389,,20192,,17402,,inactive
Syb,DRSC07559,,12097,,3818,,inactive
Ccp84Ac,DRSC12588,,15714,,4610,,inactive
Cpr67Fa2,DRSC10315,,6982,,3216,,inactive
EAChm,DRSC10010,,5042,,1936,,inactive
P5cr,DRSC16782,,15875,,3324,,inactive
RpL5,DRSC03801,,1782,4630,564,1724,inactive
schuy,DRSC10284,,15421,,4769,,inactive
Rbp1-like,DRSC19828,,28130,,13248,,inactive
Rbp1-like,DRSC21938,,5.63e5,5.87e5,2.27e5,2.47e5,inactive
Rbp1-like,DRSC22075,,6.36e5,7.10e5,1.62e5,1.58e5,inactive
Dpm1,DRSC02018,,2032,5537,502,2097,inactive
Pnn,DRSC16415,,10539,,3491,,inactive
CG10962,DRSC18421,,2788,4589,856,1578,inactive
Eaat2,DRSC00032,,24353,,10021,,inactive
Eaat2,DRSC00749,,10008,,5277,,inactive
CG17786,DRSC15270,,16246,,12977,,inactive
Wnt4,DRSC00976,,3430,,4118,,inactive
Wnt4,DRSC03477,,1389,6677,597,2518,inactive
CSN1b,DRSC11108,,6919,,2215,,inactive
onecut,DRSC17175,,18900,,11005,,inactive
Idgf2,DRSC03350,,6986,,2395,,inactive
RpL34a,DRSC15964,,22231,,16166,,inactive
CG8568,DRSC20113,,1784,5319,776,2201,inactive
CG7335,DRSC10816,,17260,,4659,,inactive
yellow-g,DRSC08575,,6103,,2779,,inactive
CG8788,DRSC07267,,2304,4882,816,3171,inactive
CG4806,DRSC04491,,2330,4426,688,1382,inactive
nullo,DRSC18807,,19363,,10999,,inactive
CG2909,DRSC18241,,18240,,9979,,inactive
Ube4A,DRSC02004,,11061,,5013,,inactive
Papst2,DRSC10924,,4608,,1728,,inactive
CG15745 (retired record),DRSC19711,,15046,,8713,,inactive
SerRS,DRSC00496,,10058,,5225,,inactive
Tmtc3,DRSC04444,,9488,,2401,,inactive
Gr22a,DRSC22283,,6.93e5,6.89e5,2.99e5,2.66e5,inactive
TyrRS-m,DRSC04286,,8885,,3555,,inactive
hng2,DRSC16412,,14816,,4280,,inactive
xmas,DRSC21306,,23637,,10827,,inactive
xmas,DRSC22178,,5.11e5,5.86e5,1.47e5,1.54e5,inactive
app,DRSC09159,,3248,,2112,,inactive
app,DRSC10246,,5900,,2396,,inactive
app,DRSC10526,,13369,,3300,,inactive
Pp1-13C,DRSC20269,,25921,,10020,,inactive
CG13856,DRSC14706,,37364,,7280,,inactive

Single entries from the list:
CG8788 [DRSC07267], Renilla control light, replicate 2: 3171
onecut [DRSC17175], firefly reporter light, replicate 1 → 18900
Rbp1-like [DRSC21938], firefly reporter light, replicate 2 → 5.87e5
Value for Ccp84Ac [DRSC12588] under “firefly reporter light, replicate 1”: 15714
For “Renilla control light, replicate 1”, Eaat2 [DRSC00749] is entered as 5277
Under “firefly reporter light, replicate 2”, xmas [DRSC22178] has 5.86e5
